{
  "source": "patent US11160887B2",
  "about": "“Compositions for use in diagnosing and treating melanoma, including metastatic melanoma and methods related to same” (UNM RAINFOREST INNOVATIONS, priority 2008, dated 2021)",
  "key": {"[1]": {"test_system": "B16/F1 murine melanoma cells", "test": "Cellular internalization and efflux in B16/F1 cells", "format": "cell-based", "settings": "for activity internalized in the cells: 25° C., after 2 h incubation; for activity remained inside the cells (efflux): 2 h after incubating cells in culture media at 25° C."}, "[2]": {"test_system": "B16/F1 flank melanoma-bearing C57 mice", "test": "SPECT/CT imaging of B16/F1 flank melanoma-bearing C57 mice", "format": "in vivo, mouse", "settings": "2 h post-injection, 13.7 MBq"}, "[3]": {"test_system": "B16/F10 murine melanoma cells", "test": "Cellular internalization and efflux in B16/F10 cells", "format": "cell-based"}},
  "note": "Several values for one entry are separate records, joined by “and”; a condition that tells them apart may be missing. Equal entries are not always repeated. Not every detail of the peptide structures is certain; ends, links or a residue may be inferred. Residues, ends and D or L forms follow the SMILES beside them.",
  "data": [
    {"smiles": "CCCC[C@@H]1NC(=O)[C@@H](NC(=O)CN2CCN(CC(=O)O)CCN(CC(=O)O)CCN(CC(=O)O)CC2)CCCCNC(=O)[C@H](CC(=O)O)NC(=O)[C@H](C(C)C)NC(=O)[C@@H]2CCCN2C(=O)[C@H](CCCNC(=N)N)NC(=O)CNC(=O)[C@H](Cc2c[nH]c3ccccc23)NC(=O)[C@H](CCCNC(=N)N)NC(=O)[C@@H](Cc2ccccc2)NC(=O)[C@H](Cc2c[nH]cn2)NC(=O)[C@H](CCC(=O)O)NC1=O", "note": "[^111In-DOTA-CycMSH, metal not drawn] (HELM PEPTIDE1{[O=C(O)CN1CCN(CC(=O)O)CCN(CC(=O)[*:2])CCN(CC(=O)O)CC1].K.[Nle].E.H.[dF].R.W.G.R.P.V.D}$PEPTIDE1,PEPTIDE1,2:R3-13:R2$$$V2.0)", "values": [
      {"measurement": "activity internalized in the cells", "setting": "[1]", "value": "81.98±2.02", "unit": "%"},
      {"measurement": "activity remained inside the cells (efflux)", "setting": "[1]", "value": "90.26±1.71% and ~90%"},
      {"measurement": "visualization of flank melanoma tumors by SPECT/CT", "setting": "[2]", "value": "visualized clearly"}
    ]},
    {"smiles": "CCCC[C@@H]1NC(=O)[C@@H](NC(=O)[C@H](CCC(=O)O)NC(=O)CNC(=O)CN2CCN(CC(=O)O)CCN(CC(=O)O)CCN(CC(=O)O)CC2)CCCCNC(=O)[C@H](CC(=O)O)NC(=O)[C@H](C(C)C)NC(=O)[C@@H]2CCCN2C(=O)[C@H](CCCNC(=N)N)NC(=O)CNC(=O)[C@H](Cc2c[nH]c3ccccc23)NC(=O)[C@H](CCCNC(=N)N)NC(=O)[C@@H](Cc2ccccc2)NC(=O)[C@H](Cc2c[nH]cn2)NC(=O)[C@H](CCC(=O)O)NC1=O", "note": "[^111In-DOTA-GlyGlu-CycMSH, metal not drawn] (HELM PEPTIDE1{[O=C(O)CN1CCN(CC(=O)O)CCN(CC(=O)[*:2])CCN(CC(=O)O)CC1].G.E.K.[Nle].E.H.[dF].R.W.G.R.P.V.D}$PEPTIDE1,PEPTIDE1,4:R3-15:R2$$$V2.0)", "values": [
      {"measurement": "activity internalized in the cells", "setting": "[1]", "value": "78.93±0.64", "unit": "%"},
      {"measurement": "activity remained inside the cells (efflux)", "setting": "[1]", "value": "90.00±1.10% and ~90%"},
      {"measurement": "visualization of flank melanoma tumors by SPECT/CT", "setting": "[2]", "value": "visualized clearly"},
      {"measurement": "activity internalized in the cells", "setting": "[3]; 25° C., after 2 h incubation", "value": "79.7±10.1", "unit": "%"},
      {"measurement": "activity remained inside the cells (efflux)", "setting": "[3]; 2 h after incubating cells in culture media", "value": "90.6±5.3% and ~90%"}
    ]}
  ]
}
